Results reported in patent US20080200492A1, “METHODS FOR THE TREATMENT OF ALCOHOL ABUSE, ADDICTION AND DEPENDENCY” (priority 2006, published 2008).

How the values were obtained:
[1] = tested on: alcohol preferring rats; assay: Alcohol Preferring Rats In Vivo Model, acute oral dosing, two-bottle choice; design: species or system rat; details: mean ± S.E.M., N = 14
Procedure: Adult male selectively-bred alcohol preferring rats (N=14) were used. This particular strain of alcohol drinking rat has been characterized and have been widely used to study the effects of different compounds on voluntary alcohol intake (Farren et al., 2000; Rezvani et al, 1990, 1991, 1992a, 1992b, 1999, 2000, 2003; Murphy et al, 1988; Overstreet et al., 2003, 1999; Li and McBride, 1990). Rats were housed individually in approved cages under a constant room temperature of 22+1° C. and 12:12 light-dark cycle (8:00-20:00, dark). Animal were fed Agway Prolab Rat/Mouse/Hamster 3000 formula and water ad libitum.
Alcohol intake was determined using the standard two-bottle choice method utilized in our and other laboratories for many years (Murphy et al. 1988; Rezvani et al. 1990, 1991, 1993, 1995, 1997, Rezvani and Grady, 1994, Rezvani et al., 1993). Animals were first given free access to water in a graduated Richter tube for 2 days. Next, they were given access to only a solution of 10% (v/v) ethanol for 3 consecutive days. During this period animals became accustomed to drinking from Richter tubes and to the taste and pharmacological effects of alcohol. Thereafter, they were given free access to both water and a solution of 10% alcohol for at least 4 consecutive weeks and throughout of the period of study. Rats had free access to food. Water and alcohol intake were recorded at 6 and 24 hour after the treatment, whereas food intake was measured at 24 hour. Animals' body weights were measured the day of the treatment and the day after.
After establishment of stable baseline for alcohol, food, and water intake, rats were administered (gavage) at 9:30 a.m. either with the vehicle or the compound of formula (I) at one of four doses (1,3,10 and 30 mg/kg) using a cross-over design with random assignment. To be able to compare the efficacy of the compound of formula (I) on alcohol intake naltrexone was included as a positive control. The same rats were given an oral dose of 20 mg/kg naltrexone. All animals will receive all treatments in a random order. The interval between treatments was at least 1 week. Alcohol and water intake were recorded 6 and 24 h after the drug administration and food intake was recorded at 24 hr. The volume of the drug administration was 6 ml/kg.
The results at 6 and 24 hours post-dosing are presented in Tables 3 and 4 below, as means ±SEM. Alcohol intake (g/kg) was calculated by multiplying the volume of alcohol consumed in ml by 10% and 0.7893 (ethanol density)/body weight in kg. Alcohol preference, expressed as a percentage, was calculated as follows (volume of alcohol consumed in ml/total fluid intake in ml)×100 (Rezvani and Grady, 1994; Rezvani et al., 1997). Statistical differences between drug-treated and control groups were determined by using ANOVA with repeated measures. Each treatment was compared with the corresponding vehicle value.

[2] = tested on: alcohol preferring rats; assay: Alcohol Preferring Rats, Study A: Chronic Administration (14 days); assay type: in vivo, rat; details: 30 mg/kg once a day, gavage
Procedure: Adult male selectively-bred alcohol preferring rats were used in this study. The selectively bred alcohol preferring rats are widely used to study the suppressant effects of compounds on voluntary alcohol intake (Faren et al. 2000; Rezvani et al, 1990, 1991, 1992a, 1992b, 1999, 2000, 2002; 2003; Murphy et al, 1988; Overstreet et al., 1992, 1999; Li and McBride, 1995).
The rats were housed individually under a constant room temperature of 22±1° C. and 12:12 light-dark cycle (7:00-19:00, dark). Animals were fed Agway Prolab Rat/Mouse/Hamster 3000 formula and water ad libitum.
Alcohol intake was determined using a standard two-bottle choice method (Murphy et al. 1988; McBride et al. 1990; Rezvani et al. 1990, 1991, 1993, 1995, 1997, Rezvani et al., 2007a,b; Rezvani and Grady, 1994). Animals were first given free access to water in a graduated Richter tube for 1 day. Next, they were given access to only a solution of 10% (v/v) ethanol for 3 consecutive days. During this period the animals became accustomed to drinking from Richter tubes and to the taste and pharmacological effects of alcohol. Thereafter, the animals were given free access to both water and a solution of 10% alcohol for 4 consecutive weeks and throughout of the study. The animals continued to have free access to food. Water and alcohol intake were recorded at 6 and 24 hour.
After establishment of a reliable baseline for alcohol, and water intake, the animals were randomly assigned to a treatment regimen. The animals were administered once a day, via gavage, either vehicle (0.5% methylcellulose) or compound of formula (I-A) (at 30 mg/kg) or naltrexone (at 20 mg/kg) for 14 consecutive days. A group of 6-7 animals was used for each treatment. Alcohol and water intake was recorded at 6 hrs and 24 hrs after administration.
The results are presented as a means ±SEM. Alcohol intake (g/kg) was calculated by multiplying the volume of alcohol consumed in ml by 10% and 0.7893 (ethanol density)/body weight in kg. Alcohol preference, expressed as percentage was calculated as (volume of alcohol consumed in ml/total fluid intake in ml)×100 (Rezvani and Grady, 1994; Rezvani et al., 2007a). Statistical differences between drug-treated and control groups was determined by using ANOVA and Tukey Student's t test for multiple comparison.
The results from Study A provide a measure of whether or not the animals develop tolerance to the suppressant effects of the test compound following a chronic treatment. In Tables 5-8 below, the abbreviation “(I-A)” stands for the compound of formula (I-A), the abbreviation “Naltx” stands for naltrexone, and the abbreviation “EtOH” stands for ethanol.

[3] = 1 mg/kg p.o., 6 hrs post-dosing
[4] = 1 mg/kg p.o., 24 hrs post-dosing
[5] = 3 mg/kg p.o., 6 hrs post-dosing
[6] = 3 mg/kg p.o., 24 hrs post-dosing
[7] = 10 mg/kg p.o., 6 hrs post-dosing
[8] = 10 mg/kg p.o., 24 hrs post-dosing
[9] = 30 mg/kg p.o, 6 hrs post-dosing
[10] = 30 mg/kg p.o, 24 hrs post-dosing

`Cc1cccc2cccc(CN3CCC4(CC3)C(=O)N(C[C@H](O)CN)CN4c3ccc(F)cc3)c12` [Cmpd (I-A), 3-(3-amino-2-(R)-hydroxy-propyl)-1-(4-fluoro-phenyl)-8-(8-methyl-naphthalen-1-ylmethyl)-1,3,8-triazaspiro[4.5]decan-4-one] was tested, and the “Total Fluid Intake” value [1, 3] was 44.7 ± 6.60 mL/kg, the “Water Intake” value [1, 3] was 7.36 ± 1.67 mL/kg and the “Food Intake” value [1, 4] was 16.3 ± 0.773 g. For the same molecule, the “Total Fluid Intake” value [1, 4] was 104 ± 11.1 mL/kg, the “Water Intake” value [1, 4] was 13.1 ± 2.26 mL/kg and the “Total Fluid Intake” value [1, 5] was 51.0 ± 6.23 mL/kg. For the same molecule, the “Water Intake” value [1, 5] was 12.7 ± 2.67 mL/kg, the “Food Intake” value [1, 6] was 22.4 ± 1.07 g and the “Total Fluid Intake” value [1, 6] was 120 ± 9.23 mL/kg. The “Water Intake” value [1, 6] was 26.2 ± 4.56 mL/kg, the “Total Fluid Intake” value [1, 7] was 46.7 ± 4.19 mL/kg and the “Water Intake” value [1, 7] was 9.93 ± 2.13 mL/kg. The “Food Intake” value [1, 8] was 22.2 ± 1.33 g, the “Total Fluid Intake” value [1, 8] was 129 ± 9.98 mL/kg and the “Water Intake” value [1, 8] was 24.3 ± 3.76 mL/kg. The “Total Fluid Intake” value [1, 9] was 38.2 ± 6.93 mL/kg, the “Water Intake” value [1, 9] was 11.4 ± 2.39 mL/kg and the “Food Intake” value [1, 10] was 21.5 ± 1.26 g. For the same molecule, the “Total Fluid Intake” value [1, 10] was 123 ± 10.3 mL/kg, the “Water Intake” value [1, 10] was 34.0 ± 4.73 mL/kg and the “Water Intake” value ([2]; Day 1, 6 Hour Intake) was 10 g/kg. The “Water Intake” value ([2]; Day 1, 24 Hour Intake) was 19 g/kg, the “Water Intake” value ([2]; Day 2, 6 Hour Intake) was 19 g/kg and the “Water Intake” value ([2]; Day 2, 24 Hour Intake) was 32 g/kg. The “Water Intake” value ([2]; Day 3, 6 Hour Intake) was 16 g/kg, the “Water Intake” value ([2]; Day 3, 24 Hour Intake) was 29 g/kg and the “Water Intake” value ([2]; Day 4, 6 Hour Intake) was 15 g/kg. The “Water Intake” value ([2]; Day 4, 24 Hour Intake) was 31 g/kg, the “Water Intake” value ([2]; Day 5, 6 Hour Intake) was 28 g/kg and the “Water Intake” value ([2]; Day 5, 24 Hour Intake) was 37 g/kg. The “Water Intake” value ([2]; Day 6, 6 Hour Intake) was 13 g/kg, the “Water Intake” value ([2]; Day 6, 24 Hour Intake) was 25 g/kg and the “Water Intake” value ([2]; Day 7, 6 Hour Intake) was 11 g/kg. The “Water Intake” value ([2]; Day 7, 24 Hour Intake) was 16 g/kg, the “Water Intake” value ([2]; Day 8, 6 Hour Intake) was 12 g/kg and the “Water Intake” value ([2]; Day 8, 24 Hour Intake) was 23 g/kg. The “Water Intake” value ([2]; Day 9, 6 Hour Intake) was 10 g/kg, the “Water Intake” value ([2]; Day 9, 24 Hour Intake) was 22 g/kg and the “Water Intake” value ([2]; Day 10, 6 Hour Intake) was 6 g/kg. For the same molecule, the “Water Intake” value ([2]; Day 10, 24 Hour Intake) was 12 g/kg, the “Water Intake” value ([2]; Day 11, 6 Hour Intake) was 9 g/kg and the “Water Intake” value ([2]; Day 11, 24 Hour Intake) was 9 g/kg. For the same molecule, the “Water Intake” value ([2]; Day 12, 6 Hour Intake) was 17 g/kg, the “Water Intake” value ([2]; Day 12, 24 Hour Intake) was 17 g/kg and the “Water Intake” value ([2]; Day 13, 6 Hour Intake) was 13 g/kg. The “Water Intake” value ([2]; Day 13, 24 Hour Intake) was 13 g/kg, the “Water Intake” value ([2]; Day 14, 6 Hour Intake) was 16 g/kg and the “Water Intake” value ([2]; Day 14, 24 Hour Intake) was 28 g/kg.
